From patent publication US20230172877A1, “METABOLITES RELEASED FROM APOPTOTIC CELLS ACT AS NOVEL TISSUE MESSENGERS” (University of Virginia Patent Foundation, priority 2020, published 2023) come the findings set out here.

The series deals with Jurkat T cells. Nature of the series: Untargeted metabolomics of supernatants and cell pellets of apoptotic (UV) versus live Jurkat T cells. The class given is cell-based, human. As to conditions: for Fold Change (FAp/FL)-Cell / Fold Change (FAp/FL)-Supe: Jurkat T cells, UV, apoptotic versus live; for Fold Change (FAp/FL)-Cell: cell pellet decrease; for Fold Change (FAp/FL)-Supe: supernatant enrichment; for Fold Change (FAp/FL): Jurkat UV metabolite release, apoptotic versus live supernatant, 4 hours after apoptosis induction.

Consider `CCCCCCCC/C=C\CCCCCCCC(=O)OC[C@@H](O)COP(=O)([O-])OCC[N+](C)(C)C` [1-oleoyl-GPC (18:1)], for which the “Fold Change (FAp/FL)-Cell” value is reported as 0.46, the “Fold Change (FAp/FL)-Supe” value is 2.74 and the “Fold Change (FAp/FL)” value is given as 2.74.
Consider `CCCCCCCCCCCCCCCCCC(=O)OC[C@@H](O)COP(=O)([O-])OCC[N+](C)(C)C` [1-stearoyl-GPC (18:0)], for which the “Fold Change (FAp/FL)-Cell” value came out at 0.53 and the “Fold Change (FAp/FL)-Supe” value amounted to 1.21.
On to `O=C(O)CCC(O)C(=O)O` (centres unmarked) [2-hydroxyglutarate], for which the “Fold Change (FAp/FL)-Cell” value stood at 0.07, the “Fold Change (FAp/FL)-Supe” value is 3.06 and the “Fold Change (FAp/FL)” value worked out at 3.06.
For the compound `Nc1ncnc2c1ncn2[C@H]1C[C@H](O)[C@@H](COP(=O)(O)O)O1` [2′-deoxyadenosine 5′-monophosphate], the “Fold Change (FAp/FL)-Cell” value was 0.65, the “Fold Change (FAp/FL)-Supe” value is given as 20.95 and the “Fold Change (FAp/FL)” value was found to be 20.95.
For the compound `Nc1ccn([C@H]2C[C@H](O)[C@@H](COP(=O)(O)O)O2)c(=O)n1` [2′-deoxycytidine 5′-monophosphate], the “Fold Change (FAp/FL)-Cell” value is listed as 0.06, the “Fold Change (FAp/FL)-Supe” value turned out to be 1.54 and the “Fold Change (FAp/FL)” value was 1.54.
In the case of `Nc1ccn([C@H]2C[C@H](O)[C@@H](CO)O2)c(=O)n1` [2′-deoxycytidine], the “Fold Change (FAp/FL)-Cell” value turned out to be 0.26, the “Fold Change (FAp/FL)-Supe” value is recorded as 4.21 and the “Fold Change (FAp/FL)” value was determined as 4.21.
`Nc1nc2c(ncn2[C@H]2C[C@H](O)[C@@H](CO)O2)c(=O)[nH]1` [2′-deoxyguanosine]: the “Fold Change (FAp/FL)-Cell” value was 0.61, the “Fold Change (FAp/FL)-Supe” value was found to be 3.12 and the “Fold Change (FAp/FL)” value was determined as 3.12.
In the case of `OC[C@H]1O[C@@H](n2cnc3c(O)ncnc32)C[C@@H]1O` [2′-deoxyinosine], the “Fold Change (FAp/FL)-Cell” value was found to be 0.67, the “Fold Change (FAp/FL)-Supe” value is reported as 2.38 and the “Fold Change (FAp/FL)” value amounted to 2.38.
As for `CC(O)(CC(=O)O)CC(=O)O` [3 -hydroxy-3 -methylglutarate, 3-hydroxy-3-methylglutarate], the “Fold Change (FAp/FL)-Cell” value was 0.10, the “Fold Change (FAp/FL)-Supe” value was found to be 1.70 and the “Fold Change (FAp/FL)” value is listed as 1.70.
Turning to `N[C@@H](CS(=O)(=O)O)C(=O)O` [3 -sulfo-L-alanine], the “Fold Change (FAp/FL)” value worked out at 2.30.
Turning to `Cn1c(=N)ccn([C@@H]2O[C@H](CO)[C@@H](O)[C@H]2O)c1=O` [3-methylcytidine], the “Fold Change (FAp/FL)” value is on record as 1.53.
Regarding `N=C(N)NCCCC(=O)O` [4-guanidinobutanoate], the “Fold Change (FAp/FL)-Cell” value worked out at 0.28, the “Fold Change (FAp/FL)-Supe” value worked out at 1.42 and the “Fold Change (FAp/FL)” value is recorded as 1.42.
On to `Cc1cn([C@H]2C[C@H](O)[C@@H](CO)O2)c(=O)nc1N` [5-methyl-2′-deoxycytidine], for which the “Fold Change (FAp/FL)” value is given as 1.65.
Same read-out and setting: next, `Cn1cnc2c(ncn2[C@@H]2O[C@H](CO)[C@@H](O)[C@H]2O)c1=O` [N1-methylinosine]: 1.47; `CN(C)c1nc2c(ncn2[C@@H]2O[C@H](CO)[C@@H](O)[C@H]2O)c(=O)[nH]1` [N2,N2-dimethylguanosine]: 1.63.
The same measure, in the same setting: next, `CC(=O)N[C@@H](CCCNC(=N)N)C(=O)O` [N-acetylarginine]: 2.02.
`CC(=O)N[C@@H](CC(N)=O)C(=O)O` [N-acetylasparagine]: the “Fold Change (FAp/FL)-Cell” value turned out to be 0.64, the “Fold Change (FAp/FL)-Supe” value was 2.70 and the “Fold Change (FAp/FL)” value amounted to 2.70.
For the compound `CC(=O)N[C@@H](CC(=O)O)C(=O)O` [N-acetylaspartate (NAA), N-acetylaspartate], the “Fold Change (FAp/FL)-Cell” value was found to be 0.10, the “Fold Change (FAp/FL)-Supe” value is reported as 7.35 and the “Fold Change (FAp/FL)” value worked out at 7.35.
On to `CC(=O)N[C@@H](CCC(=O)O)C(=O)O` [N-acetylglutamate], for which the “Fold Change (FAp/FL)-Cell” value came out at 0.12, the “Fold Change (FAp/FL)-Supe” value was determined as 3.30 and the “Fold Change (FAp/FL)” value worked out at 3.30.
